These results are taken from patent US20070178516A1, “Self-addressable self-assembling microelectronic integrated systems, component devices, mechanisms, methods, and procedures for molecular biological analysis and diagnostics” (NANOGEN, INC., priority 1993, published 2007).

The structures appear in SMILES notation. Some entries repeat one wording, which the source may state once for all of them.

Data set [1] has as its system ATA5 capture oligonucleotide. Put plainly: Electronic accumulation and hybridization of btrRCA5 in test buffers. As to conditions: for support of sequence specific electronic hybridization: complementary versus non-complementary capture.
The test system of data set [2] is DNA1 / PNA1 capture oligonucleotides. Put plainly: Hybridization of phosphodiester-linked oligonucleotides compared to PNA analogues. As to conditions: 50 mM buffer.

For the compound `N[C@@H](CS)C(=O)O` [Cysteine], the “support of sequence specific electronic hybridization” value (from here on “support”) in data set [1] is “difficult to evaluate because of poor signal accumulation”.
`NCCCC(=O)O` [GABA, g-amino-butyric acid]: the “support” value in data set [1] was “neither GABA, b-alanine, nor glycine was capable of supporting sequence specific hybridization”. The “DNA:DNA electronic hybridization” value in data set [2] (200 nA) is “no hybridization was observed”; in data set [2] (500 nA), “lack of hybridization”. The entries for the “PNA:DNA electronic hybridization” value in data set [2] (200 nA) and in data set [2] (500 nA) were “Hybridization in GABA was seen” and “lack of hybridization”, respectively.
Take `N[C@@H](Cc1c[nH]cn1)C(=O)O` [Histidine]: in data set [1], the “nonspecific signal as compared to the amount of material transported” value came to 2.2% and the “support” value is listed as “demonstrated specific hybridization”. Also, the “transported (fluorescent signal present at completion of electronic targeting)” value in data set [1] (value +/− SEM, 50 mM buffer, 10 nM btrRCA5, 500 nA 30 sec) was 533 +/− 65. Besides, the “PNA:DNA electronic hybridization” value in data set [2] (200 nA) is given as “occurs at roughly equal efficiencies at either current”. Further, in data set [2] (500 nA), the “DNA:DNA electronic hybridization” value is on record as “only occurs well at 500 nA” and the “PNA:DNA electronic hybridization” value is “occurs at roughly equal efficiencies at either current”.
For the compound `NCC(=O)O` [glycine], the “support” value in data set [1] is on record as “neither GABA, b-alanine, nor glycine was capable of supporting sequence specific hybridization”.
For the compound `NCCC(=O)O` [β-Alanine], the “support” value in data set [1] was “neither GABA, b-alanine, nor glycine was capable of supporting sequence specific hybridization”.
